Data taken from publication PMC5940405.
No constants are given. Whether binding was seen depends on the method and setting. In cells and extracts the contact can be indirect. A yes stands for co-enrichment or nearness to the bait. Other partners may have been found.

Protein sequences, listed by entry. Tags and fused reporters are not part of them. Lines headed by an entry give the natural chain unless they say otherwise; changes in a name come on top. Chains listed by the source or under a name are the forms on record and can include a tag or linker. Residues count along the entry.
UniProt Q96BY6: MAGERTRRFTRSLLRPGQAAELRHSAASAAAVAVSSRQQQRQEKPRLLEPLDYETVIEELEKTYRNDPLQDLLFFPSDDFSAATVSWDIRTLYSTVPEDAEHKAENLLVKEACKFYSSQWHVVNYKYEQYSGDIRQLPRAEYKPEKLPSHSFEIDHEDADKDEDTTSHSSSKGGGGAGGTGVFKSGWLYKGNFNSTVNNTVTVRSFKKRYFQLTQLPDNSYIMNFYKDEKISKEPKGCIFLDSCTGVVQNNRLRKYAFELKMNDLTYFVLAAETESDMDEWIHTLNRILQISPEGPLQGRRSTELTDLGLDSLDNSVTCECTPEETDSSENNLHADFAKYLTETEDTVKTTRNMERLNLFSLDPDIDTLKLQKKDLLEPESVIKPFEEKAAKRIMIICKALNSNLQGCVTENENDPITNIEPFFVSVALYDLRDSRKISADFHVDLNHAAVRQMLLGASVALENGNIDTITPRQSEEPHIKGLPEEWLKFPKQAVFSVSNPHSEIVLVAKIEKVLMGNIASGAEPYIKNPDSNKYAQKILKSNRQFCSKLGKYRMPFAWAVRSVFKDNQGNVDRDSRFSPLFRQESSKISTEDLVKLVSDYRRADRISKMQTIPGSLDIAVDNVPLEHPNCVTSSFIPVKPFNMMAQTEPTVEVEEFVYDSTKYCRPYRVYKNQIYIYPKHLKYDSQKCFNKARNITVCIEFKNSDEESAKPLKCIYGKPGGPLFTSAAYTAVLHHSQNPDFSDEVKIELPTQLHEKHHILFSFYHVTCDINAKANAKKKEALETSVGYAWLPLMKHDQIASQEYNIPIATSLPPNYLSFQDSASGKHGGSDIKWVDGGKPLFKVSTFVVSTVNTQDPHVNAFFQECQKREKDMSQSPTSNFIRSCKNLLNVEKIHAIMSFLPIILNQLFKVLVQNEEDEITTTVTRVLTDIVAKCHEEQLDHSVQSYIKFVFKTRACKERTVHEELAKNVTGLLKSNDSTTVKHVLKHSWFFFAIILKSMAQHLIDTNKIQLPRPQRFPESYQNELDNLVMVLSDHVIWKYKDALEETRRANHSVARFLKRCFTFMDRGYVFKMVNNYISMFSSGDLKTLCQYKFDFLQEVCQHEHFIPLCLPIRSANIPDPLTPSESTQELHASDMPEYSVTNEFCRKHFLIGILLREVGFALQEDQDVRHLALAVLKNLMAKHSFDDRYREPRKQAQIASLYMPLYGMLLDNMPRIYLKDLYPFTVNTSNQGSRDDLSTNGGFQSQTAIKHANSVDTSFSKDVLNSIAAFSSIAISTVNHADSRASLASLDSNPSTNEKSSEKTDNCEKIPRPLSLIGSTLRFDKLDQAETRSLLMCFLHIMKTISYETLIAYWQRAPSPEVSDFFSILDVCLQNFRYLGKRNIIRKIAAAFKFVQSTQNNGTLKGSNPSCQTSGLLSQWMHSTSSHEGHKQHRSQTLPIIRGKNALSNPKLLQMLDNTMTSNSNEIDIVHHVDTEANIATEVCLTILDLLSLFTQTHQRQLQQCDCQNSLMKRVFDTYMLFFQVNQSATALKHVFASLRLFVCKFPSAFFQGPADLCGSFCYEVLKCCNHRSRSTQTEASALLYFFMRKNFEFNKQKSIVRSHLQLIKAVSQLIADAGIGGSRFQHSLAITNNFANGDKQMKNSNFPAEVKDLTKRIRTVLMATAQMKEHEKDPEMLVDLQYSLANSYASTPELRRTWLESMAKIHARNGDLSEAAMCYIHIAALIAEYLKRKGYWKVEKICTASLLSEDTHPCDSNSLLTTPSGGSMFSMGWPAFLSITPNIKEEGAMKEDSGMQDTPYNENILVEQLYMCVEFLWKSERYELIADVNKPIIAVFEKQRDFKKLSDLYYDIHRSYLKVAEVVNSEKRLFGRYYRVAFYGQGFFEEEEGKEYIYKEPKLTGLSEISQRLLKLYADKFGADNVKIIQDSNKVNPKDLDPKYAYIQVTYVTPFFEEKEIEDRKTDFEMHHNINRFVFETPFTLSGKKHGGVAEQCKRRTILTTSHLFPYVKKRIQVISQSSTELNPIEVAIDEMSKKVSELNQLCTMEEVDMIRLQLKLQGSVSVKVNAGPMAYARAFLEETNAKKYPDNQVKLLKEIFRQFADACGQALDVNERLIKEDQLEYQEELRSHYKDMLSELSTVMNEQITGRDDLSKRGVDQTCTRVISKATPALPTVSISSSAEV
UniProt Q5JRA6, residues 23-1907: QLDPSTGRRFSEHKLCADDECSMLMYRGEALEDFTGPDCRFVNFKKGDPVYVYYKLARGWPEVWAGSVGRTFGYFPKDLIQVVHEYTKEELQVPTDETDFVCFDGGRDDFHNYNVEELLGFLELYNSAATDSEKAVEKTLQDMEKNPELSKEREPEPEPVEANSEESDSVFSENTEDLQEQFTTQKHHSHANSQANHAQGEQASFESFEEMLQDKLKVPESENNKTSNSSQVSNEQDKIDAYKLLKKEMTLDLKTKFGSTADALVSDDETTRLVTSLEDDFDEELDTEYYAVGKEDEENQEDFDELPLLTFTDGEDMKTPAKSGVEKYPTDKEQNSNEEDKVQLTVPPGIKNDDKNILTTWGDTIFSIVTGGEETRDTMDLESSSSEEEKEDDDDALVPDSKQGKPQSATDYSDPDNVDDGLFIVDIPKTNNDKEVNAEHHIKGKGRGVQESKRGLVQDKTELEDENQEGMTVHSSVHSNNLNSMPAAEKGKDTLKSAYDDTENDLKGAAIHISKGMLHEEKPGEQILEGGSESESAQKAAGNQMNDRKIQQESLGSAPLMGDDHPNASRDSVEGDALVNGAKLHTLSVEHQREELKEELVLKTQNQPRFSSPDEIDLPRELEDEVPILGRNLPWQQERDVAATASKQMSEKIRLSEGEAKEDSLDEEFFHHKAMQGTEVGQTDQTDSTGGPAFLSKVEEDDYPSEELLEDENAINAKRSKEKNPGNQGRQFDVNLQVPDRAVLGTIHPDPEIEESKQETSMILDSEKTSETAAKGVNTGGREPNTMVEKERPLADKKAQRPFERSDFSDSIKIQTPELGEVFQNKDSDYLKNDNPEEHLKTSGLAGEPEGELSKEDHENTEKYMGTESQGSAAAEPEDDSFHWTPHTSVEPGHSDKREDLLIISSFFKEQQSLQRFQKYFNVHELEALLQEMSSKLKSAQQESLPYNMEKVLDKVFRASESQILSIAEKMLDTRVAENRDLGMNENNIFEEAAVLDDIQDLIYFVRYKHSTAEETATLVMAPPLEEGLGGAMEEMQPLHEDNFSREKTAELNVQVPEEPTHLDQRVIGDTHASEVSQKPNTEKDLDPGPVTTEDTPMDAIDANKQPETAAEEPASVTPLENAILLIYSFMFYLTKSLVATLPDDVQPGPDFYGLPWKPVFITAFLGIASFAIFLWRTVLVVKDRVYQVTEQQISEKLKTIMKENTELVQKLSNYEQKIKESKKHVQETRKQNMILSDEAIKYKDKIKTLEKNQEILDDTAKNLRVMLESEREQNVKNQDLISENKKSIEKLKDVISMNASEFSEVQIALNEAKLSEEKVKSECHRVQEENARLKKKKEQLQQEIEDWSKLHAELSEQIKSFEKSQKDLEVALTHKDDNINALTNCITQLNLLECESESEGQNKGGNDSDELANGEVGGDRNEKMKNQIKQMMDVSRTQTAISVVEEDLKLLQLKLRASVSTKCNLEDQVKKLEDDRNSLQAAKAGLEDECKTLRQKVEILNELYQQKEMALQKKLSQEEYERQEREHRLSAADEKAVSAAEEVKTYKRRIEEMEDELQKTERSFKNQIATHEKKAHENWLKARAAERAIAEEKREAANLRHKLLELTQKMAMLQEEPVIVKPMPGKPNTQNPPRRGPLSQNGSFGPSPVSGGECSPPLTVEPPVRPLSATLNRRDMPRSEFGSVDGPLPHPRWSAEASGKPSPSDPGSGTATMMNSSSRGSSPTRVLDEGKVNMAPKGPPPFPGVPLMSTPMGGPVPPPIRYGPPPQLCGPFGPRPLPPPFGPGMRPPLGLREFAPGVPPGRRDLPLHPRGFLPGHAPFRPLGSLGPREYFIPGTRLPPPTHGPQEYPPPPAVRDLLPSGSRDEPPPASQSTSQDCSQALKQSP
Isoform B of AP-2 complex subunit alpha-1 (O95782-2, form named): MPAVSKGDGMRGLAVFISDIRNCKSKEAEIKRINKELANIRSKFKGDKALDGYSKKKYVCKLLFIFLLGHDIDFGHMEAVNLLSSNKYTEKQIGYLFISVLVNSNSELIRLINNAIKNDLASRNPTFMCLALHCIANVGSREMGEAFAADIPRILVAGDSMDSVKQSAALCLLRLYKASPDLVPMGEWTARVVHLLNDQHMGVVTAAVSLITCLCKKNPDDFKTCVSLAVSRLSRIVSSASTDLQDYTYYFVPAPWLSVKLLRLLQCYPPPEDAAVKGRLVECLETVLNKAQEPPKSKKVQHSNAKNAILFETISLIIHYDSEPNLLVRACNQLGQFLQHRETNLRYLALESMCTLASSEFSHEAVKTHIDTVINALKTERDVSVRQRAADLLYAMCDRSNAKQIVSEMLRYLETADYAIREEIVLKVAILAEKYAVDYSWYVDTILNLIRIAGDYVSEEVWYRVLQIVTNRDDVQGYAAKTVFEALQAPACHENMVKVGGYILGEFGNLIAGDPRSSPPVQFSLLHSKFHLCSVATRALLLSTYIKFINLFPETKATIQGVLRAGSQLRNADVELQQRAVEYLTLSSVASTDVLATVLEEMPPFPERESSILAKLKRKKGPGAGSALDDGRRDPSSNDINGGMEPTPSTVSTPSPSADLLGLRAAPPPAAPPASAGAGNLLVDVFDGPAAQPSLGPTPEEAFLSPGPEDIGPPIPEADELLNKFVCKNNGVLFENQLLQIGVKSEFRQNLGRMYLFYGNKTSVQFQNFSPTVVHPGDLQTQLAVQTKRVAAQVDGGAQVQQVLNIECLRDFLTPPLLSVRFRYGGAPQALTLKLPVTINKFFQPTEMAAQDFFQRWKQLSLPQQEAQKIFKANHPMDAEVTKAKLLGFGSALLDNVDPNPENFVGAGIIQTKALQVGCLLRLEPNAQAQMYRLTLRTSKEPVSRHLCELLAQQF
UniProt O94916: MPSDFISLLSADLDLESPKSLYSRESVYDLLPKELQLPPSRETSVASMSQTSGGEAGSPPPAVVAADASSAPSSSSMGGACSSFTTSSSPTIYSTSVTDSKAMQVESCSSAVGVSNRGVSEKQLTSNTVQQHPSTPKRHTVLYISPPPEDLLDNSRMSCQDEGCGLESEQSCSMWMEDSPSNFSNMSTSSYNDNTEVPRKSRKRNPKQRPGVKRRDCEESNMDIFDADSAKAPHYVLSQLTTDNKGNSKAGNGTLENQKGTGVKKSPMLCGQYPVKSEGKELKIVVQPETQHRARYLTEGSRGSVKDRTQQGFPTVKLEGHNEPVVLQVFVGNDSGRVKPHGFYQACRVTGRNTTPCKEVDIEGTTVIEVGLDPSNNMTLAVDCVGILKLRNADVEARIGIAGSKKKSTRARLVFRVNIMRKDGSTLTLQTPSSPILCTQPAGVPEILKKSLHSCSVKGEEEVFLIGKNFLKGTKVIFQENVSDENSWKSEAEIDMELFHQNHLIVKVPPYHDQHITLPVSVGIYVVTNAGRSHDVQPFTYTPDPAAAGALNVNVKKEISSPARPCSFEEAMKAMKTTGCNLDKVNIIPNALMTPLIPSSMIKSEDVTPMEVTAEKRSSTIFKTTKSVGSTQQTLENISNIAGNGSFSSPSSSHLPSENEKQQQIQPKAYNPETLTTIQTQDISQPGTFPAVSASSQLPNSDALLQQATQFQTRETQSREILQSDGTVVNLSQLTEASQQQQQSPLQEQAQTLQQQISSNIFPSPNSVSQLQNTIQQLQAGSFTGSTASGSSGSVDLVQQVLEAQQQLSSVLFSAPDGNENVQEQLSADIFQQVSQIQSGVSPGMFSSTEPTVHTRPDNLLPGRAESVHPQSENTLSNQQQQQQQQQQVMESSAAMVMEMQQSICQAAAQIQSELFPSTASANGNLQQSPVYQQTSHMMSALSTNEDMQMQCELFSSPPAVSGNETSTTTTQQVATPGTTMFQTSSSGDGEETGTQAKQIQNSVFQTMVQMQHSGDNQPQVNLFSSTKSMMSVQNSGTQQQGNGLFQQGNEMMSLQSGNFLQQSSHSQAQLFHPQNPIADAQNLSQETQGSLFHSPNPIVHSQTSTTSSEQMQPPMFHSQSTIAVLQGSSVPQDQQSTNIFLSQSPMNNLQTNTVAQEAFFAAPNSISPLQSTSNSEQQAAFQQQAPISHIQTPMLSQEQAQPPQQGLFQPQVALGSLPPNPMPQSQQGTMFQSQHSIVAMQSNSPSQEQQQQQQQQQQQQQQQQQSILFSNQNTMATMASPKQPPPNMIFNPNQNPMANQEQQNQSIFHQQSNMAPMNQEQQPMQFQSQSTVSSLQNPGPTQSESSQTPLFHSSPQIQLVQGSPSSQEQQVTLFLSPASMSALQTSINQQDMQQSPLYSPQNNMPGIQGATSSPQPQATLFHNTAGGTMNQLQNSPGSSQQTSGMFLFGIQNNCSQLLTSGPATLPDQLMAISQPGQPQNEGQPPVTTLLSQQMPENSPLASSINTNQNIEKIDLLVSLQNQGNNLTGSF

Biological target: GFP-ADAM12L fusion protein (UniProt O43184)
Assay: affinity purification with mass spectrometry; anti-ADAM12L immunoprecipitates from extracts of ADAM12L-overexpressing MCF10A cells, rabbit IgG as control; SDS-PAGE, in-gel trypsin digestion, LC-MS/MS; proteins found only with ADAM12L, filtered with CRAPome

binding | Molecule
binds | dedicator of cytokinesis 10 (from UniProt Q96BY6 1-2186)
binds | melanoma inhibitory activity family member 3 (from UniProt Q5JRA6 23-1907)
binds | nucleoporin 205kDa (from UniProt Q92621 1-2012)
binds | phosphodiesterase 6H (from UniProt Q13956 1-83)
binds | TBC1 domain family member 15 (protein, UniProt Q8TC07 1-691) MAAAGVVSGKIIYEQEGVYIHSSCGKTNDQDGLISGILRVLEKDAEVIVDWRPLDDALDSSSILYARKDSSSVVEWTQAPKERGHRGSEHLNSYEAEWDMVNTVSFKRKPHTNGDAPSHRNGKSKWSFLFSLTDLKSIKQNKEGMGWSYLVFCLKDDVVLPALHFHQGDSKLLIESLEKYVVLCESPQDKRTLLVNCQNKSLSQSFENLLDEPAYGLIQAGLLDRRKLLWAIHHWKKIKKDPYTATMIGFSKVTNYIFDSLRGSDPSTHQRPPSEMADFLSDAIPGLKINQQEEPGFEVITRIDLGERPVVQRREPVSLEEWTKNIDSEGRILNVDNMKQMIFRGGLSHALRKQAWKFLLGYFPWDSTKEERTQLQKQKTDEYFRMKLQWKSISQEQEKRNSRLRDYRSLIEKDVNRTDRTNKFYEGQDNPGLILLHDILMTYCMYDFDLGYVQGMSDLLSPLLYVMENEVDAFWCFASYMDQMHQNFEEQMQGMKTQLIQLSTLLRLLDSGFCSYLESQDSGYLYFCFRWLLIRFKREFSFLDILRLWEVMWTELPCTNFHLLLCCAILESEKQQIMEKHYGFNEILKHINELSMKIDVEDILCKAEAISLQMVKCKELPQAVCEILGLQGSEVTTPDSDVGEDENVVMTPCPTSAFQSNALPTLSASGARNDSPTQIPVSSDVCRLTPA
binds | pleckstrin homology domain containing A5 (protein, UniProt Q9HAU0 1-1116) MAADLNLEWISLPRSWTYGITRGGRVFFINEEAKSTTWLHPVTGEAVVTGHRRQSTDLPTGWEEAYTFEGARYYINHNERKVTCKHPVTGQPSQDNCIFVVNEQTVATMTSEEKKERPISMINEASNYNVTSDYAVHPMSPVGRTSRASKKVHNFGKRSNSIKRNPNAPVVRRGWLYKQDSTGMKLWKKRWFVLSDLCLFYYRDEKEEGILGSILLPSFQIALLTSEDHINRKYAFKAAHPNMRTYYFCTDTGKEMELWMKAMLDAALVQTEPVKRVDKITSENAPTKETNNIPNHRVLIKPEIQNNQKNKEMSKIEEKKALEAEKYGFQKDGQDRPLTKINSVKLNSLPSEYESGSACPAQTVHYRPINLSSSENKIVNVSLADLRGGNRPNTGPLYTEADRVIQRTNSMQQLEQWIKIQKGRGHEEETRGVISYQTLPRNMPSHRAQIMARYPEGYRTLPRNSKTRPESICSVTPSTHDKTLGPGAEEKRRSMRDDTMWQLYEWQQRQFYNKQSTLPRHSTLSSPKTMVNISDQTMHSIPTSPSHGSIAAYQGYSPQRTYRSEVSSPIQRGDVTIDRRHRAHHPKHVYVPDRRSVPAGLTLQSVSPQSLQGKTLSQDEGRGTLYKYRPEEVDIDAKLSRLCEQDKVVHALEEKLQQLHKEKYTLEQALLSASQEIEMHADNPAAIQTVVLQRDDLQNGLLSTCRELSRATAELERAWREYDKLEYDVTVTRNQMQEQLDHLGEVQTESAGIQRAQIQKELWRIQDVMEGLSKHKQQRGTTEIGMIGSKPFSTVKYKNEGPDYRLYKSEPELTTVAEVDESNGEEKSEPVSEIETSVVKGSHFPVGVVPPRAKSPTPESSTIASYVTLRKTKKMMDLRTERPRSAVEQLCLAESTRPRMTVEEQMERIRRHQQACLREKKKGLNVIGASDQSPLQSPSNLRDNPFRTTQTRRRDDKELDTAIRENDVKPDHETPATEIVQLKETEPQNVDFSKELKKTENISYEMLFEPEPNGVNSVEMMDKERNKDKMPEDVTFSPQDETQTANHKPEEHPEENTKNSVDEQEETVISYESTPEVSRGNQTMAVKSLSPSPESSASPVPSTQPQLTEGSHFMCV

More lines, now with the values behind:

Molecule | binding
AFG3 like matrix AAA peptidase subunit 2 (from UniProt Q9Y4W6 67-797) | binds
Aminopeptidase B (from UniProt Q9H4A4 1-650) | binds
Isoform B of AP-2 complex subunit alpha-1 (from UniProt O95782-2 1-955) | binds
Isoform USP25m of Ubiquitin carboxyl-terminal hydrolase 25 (from UniProt Q9UHP3-3 1-1125) | binds
citron rho-interacting serine/threonine kinase (from UniProt O14578 1-2027) | binds
inositol 1,4,5-trisphosphate receptor type 3 (from UniProt Q14573 1-2671) | binds
nuclear factor of activated T-cells 5, tonicity-responsive (from UniProt O94916 1-1531) | binds
spectrin repeat containing, nuclear envelope 2 (from UniProt Q8WXH0 1-6885) | binds
peroxiredoxin 5 (protein, UniProt P30044 53-214) MAPIKVGDAIPAVEVFEGEPGNKVNLAELFKGKKGVLFGVPGAFTPGCSKTHLPGFVEQAEALKAKGVQVVACLSVNDAFVTGEWGRAHKAEGKVRLLADPTGAFGKETDLLLDDSLVSIFGNRRLKRFSMVVQDGIVKALNVEPDGTGLTCSLAPNIISQL | binds
